The target in assay [1] is T1, MEI4 (mouse, endogenous in testis) (mouse (endogenous in testis)), Q8BRM6.
T1 chain: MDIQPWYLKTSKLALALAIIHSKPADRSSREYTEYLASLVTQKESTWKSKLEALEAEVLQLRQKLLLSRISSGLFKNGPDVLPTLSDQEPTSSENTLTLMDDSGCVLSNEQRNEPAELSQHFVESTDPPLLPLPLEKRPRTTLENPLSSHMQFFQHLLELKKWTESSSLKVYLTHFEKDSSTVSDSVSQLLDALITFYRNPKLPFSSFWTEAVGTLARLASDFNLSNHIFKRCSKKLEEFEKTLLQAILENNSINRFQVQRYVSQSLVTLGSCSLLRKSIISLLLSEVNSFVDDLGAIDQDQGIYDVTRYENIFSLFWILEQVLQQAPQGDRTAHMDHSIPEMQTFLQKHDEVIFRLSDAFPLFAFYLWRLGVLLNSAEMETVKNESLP
The assay can be described thus: co-IP; anti-MEI4 antibody cross-linked to Dynabeads Protein A; 3.6 mg total testis extract from 14 dpp mice (WT, Mei4-/-, Spo11-/-, Rec114-/-), 4°C overnight; washes with 20 mM Tris-HCl pH 7.5, 0.05% NP-40, 0.1% Tween-20, 10% glycerol, 150 mM NaCl; Western blot. Conditions: remark: other sources report otherwise. (Immunoblotting shows a protein as a band on a membrane.)

For assay [2], the target named is T2, Strep-REC114 (203-254) (mouse) (UniProt Q9CWH4).
T2 sequence: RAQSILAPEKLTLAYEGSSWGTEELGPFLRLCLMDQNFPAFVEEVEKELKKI
Put plainly: pull-down; Strep-tag pull-down: Strep-REC114 variants co-expressed with His-MEI4 (1-127) in bacteria, held on Strep-Tactin XT resin; 20 mM Tris pH 7.0, 200 mM NaCl, 5 mM mercaptoethanol; eluted with 50 mM biotin; SDS-PAGE with Coomassie and anti-His Western blot.

The target in assay [3] is T3, Strep-REC114 full length (mouse) (UniProt Q9CWH4).
T3 sequence: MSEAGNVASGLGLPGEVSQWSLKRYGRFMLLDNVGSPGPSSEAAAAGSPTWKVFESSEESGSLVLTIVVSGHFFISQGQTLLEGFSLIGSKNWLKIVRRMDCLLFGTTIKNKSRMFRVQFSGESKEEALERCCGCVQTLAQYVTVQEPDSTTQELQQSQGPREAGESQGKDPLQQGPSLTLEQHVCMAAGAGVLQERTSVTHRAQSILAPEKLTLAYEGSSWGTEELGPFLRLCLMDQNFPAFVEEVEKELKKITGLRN
The description is as above.

Assay [4] has as its target T2, Strep-REC114 (203-254) (mouse). Put plainly: SEC; Superdex 200 gel filtration of the co-expressed, co-purified complex (Strep-Tactin resin, TEV cleavage of the His-tag of MEI4, Ni2+ column passage); peak fractions on SDS-PAGE; both purified.
The target in assay [5] is T4, MEI4 (mouse, endogenous in testis) (mouse (endogenous in testis)) (UniProt Q8BRM6).
T4 sequence: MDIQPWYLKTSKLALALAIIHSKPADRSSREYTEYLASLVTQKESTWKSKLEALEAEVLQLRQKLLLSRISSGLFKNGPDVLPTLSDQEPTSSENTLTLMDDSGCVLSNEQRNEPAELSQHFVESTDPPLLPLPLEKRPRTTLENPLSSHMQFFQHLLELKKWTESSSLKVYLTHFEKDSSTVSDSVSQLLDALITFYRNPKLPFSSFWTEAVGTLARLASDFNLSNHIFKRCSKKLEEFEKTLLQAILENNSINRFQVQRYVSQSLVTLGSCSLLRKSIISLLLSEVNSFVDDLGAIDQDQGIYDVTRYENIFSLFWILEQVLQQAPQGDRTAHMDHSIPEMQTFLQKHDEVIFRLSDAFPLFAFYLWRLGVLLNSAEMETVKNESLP
Put plainly: co-IP; anti-MEI4 antibody cross-linked to Dynabeads Protein A; 3.6 mg total testis extract from 14 dpp mice (WT, Mei4-/-, Spo11-/-, Rec114-/-), 4°C overnight; washes with 20 mM Tris-HCl pH 7.5, 0.05% NP-40, 0.1% Tween-20, 10% glycerol, 150 mM NaCl; Western blot.

Results are given in words; binding and its absence hold for the method and conditions named. For some assays here: In cells and extracts the contact can be indirect. Some entries that bind do so weakly or less than the wild type. For some assays here: Sequences can lack the tags named with a protein.

B1: IHO1 (mouse, endogenous in testis), Q6PDM4 1-574 (protein)
chain: MNFNVWNVKEMLSIPSGSGITKPSNWNNNQTDCSLSDSQFLFGSQFCPENSETLLPSLDAGACLRHPKQTQQNSVDSEPSIFIKYQAKPQLLGGDTKDESLFSLPLPVGKSKGLSKQFEEKKRRATDQSDSETLHSFVSHFPEVINKLQTSVEKTEENLSSRSQSILDSVETIAKTFQETARVQHDLMVESVRDKGSMEQAILEIQRTCAARQAEFMEMKSTLKNLEVLVVEQTKNLQQFCDNLSQLIVPGILEELKKFTSVPQVAGHLKDSTSQTSPSLTQSLHFTRQEKHPSEEPATWQAQEAPAGNPSTSSQRPGECGVWDEGAESGVFQKAALPTDGLHRGDGHVKNKTVPTYCKNWVMTTRSVSNHFSNLPSQRAGNGQGLMAQGASQRDVSKFEARVKNACPEYGPQSMCSFDSLEQSATEQKGRPCRKRRRGKKQQPQRSKRGGLLDRKQGQTSKAACAFIARHHCPQSPVCDPQGPLICWLTPRSSTKSTCHILGGTGETSQTARAAQGNLVQHSQRSSTDSSSQGDQQINWFSDLSLENLEPPQCKKGGTNLLCDPDFDSSDDNF
For the molecule B1, in assay [1], the binding entry is “binds”.

B2: His-MEI4 (1-127) (domain or fragment, UniProt Q8BRM6 1-127)
chain: MDIQPWYLKTSKLALALAIIHSKPADRSSREYTEYLASLVTQKESTWKSKLEALEAEVLQLRQKLLLSRISSGLFKNGPDVLPTLSDQEPTSSENTLTLMDDSGCVLSNEQRNEPAELSQHFVESTD
Consider B2, for which the binding entry in assay [2] and in assay [3] was “binds” in each case.

B3: MEI4 (1-127), His-tag removed (domain or fragment, UniProt Q8BRM6 1-127)
chain: MDIQPWYLKTSKLALALAIIHSKPADRSSREYTEYLASLVTQKESTWKSKLEALEAEVLQLRQKLLLSRISSGLFKNGPDVLPTLSDQEPTSSENTLTLMDDSGCVLSNEQRNEPAELSQHFVESTD
For B3, the binding entry in assay [4] is on record as “binds”.

B4: REC114 (mouse, endogenous in testis) (protein, UniProt Q9CWH4 1-259)
chain: MSEAGNVASGLGLPGEVSQWSLKRYGRFMLLDNVGSPGPSSEAAAAGSPTWKVFESSEESGSLVLTIVVSGHFFISQGQTLLEGFSLIGSKNWLKIVRRMDCLLFGTTIKNKSRMFRVQFSGESKEEALERCCGCVQTLAQYVTVQEPDSTTQELQQSQGPREAGESQGKDPLQQGPSLTLEQHVCMAAGAGVLQERTSVTHRAQSILAPEKLTLAYEGSSWGTEELGPFLRLCLMDQNFPAFVEEVEKELKKITGLRN
In the case of B4, in assay [5], the binding result is given as “binds”.

(Values after article PMC6288613, “Mouse REC114 is essential for meiotic DNA double-strand break formation and forms a complex with MEI4” (Life Science Alliance, 2018).)
